Patent US11932642B1, “Substituted pyrido[3′,4′:4,5]pyrrolo[3,2-b][1,6]naphthyridines as CK2 inhibitors” (KING FAISAL UNIVERSITY, priority 2023, dated 2024)

Legend:
Assay type in all cases: cell-based
A375 (melanoma) = test: In vitro cytotoxic activity (MTT) assay, A375; details: Homo sapiens, A-375; A375 (melanoma) cells, exposed for 96 hours; read-out: IC50, concentration of compound eliciting a 50% inhibition of cell proliferation
Experimental: (§1) Compounds 1-12 were screened for their in vitro cytotoxic activity utilizing a 3-(4,5-dimethyl-thiazol-2-yl)-2,5-diphenyltetrazolium bromide (MTT) assay against selected cancer human cell lines consisting of PC3 (prostate), HCT116 (colon), A375 (melanoma), H1299 (lung), MIAPaCa-2 (pancreas), HL60 (leukemia), MCF7 (breast), MDA-MB-231 (breast) (T. Mosmann, J. Immunol. Meth., 1983, 65, 55-63). The cells were cultured at 37° C. in RMPI1640 medium supplemented with 10% fetal bovine serum, 50 IU/mL penicillin, and 50 μg/mL streptomycin in a 5% CO2 incubator. All cells were sub-cultured 3 times/week by trypsinisation. Viable cells were seeded and allowed to adhere for 12 h before a test drug was added in 96-well plates at an initial density of 1.0×10^5 cells/mL. Tumour cell lines were separately exposed to various concentrations of the tested compounds followed by incubation at a temperature of 37° C. during 96 h inside a medium of fresh RMPI 1640. Cells were subsequently incubated at 37° C. using MTT at 0.5 mg/mL during 4 h. After removal of supernatant, formazan crystals were dissolved in isopropanol and the optical density was measured at 570 nm. CX-4945 was used as a positive control.

PC3 (prostate) = test: In vitro cytotoxic activity (MTT) assay, PC3; details: Homo sapiens, Prostate cell; PC3 (prostate) cells, exposed for 96 hours; read-out: IC50, concentration of compound eliciting a 50% inhibition of cell proliferation
Experimental: as §1

HL60 (leukemia) = test: In vitro cytotoxic activity (MTT) assay, HL60; details: Homo sapiens, HL-60; HL60 (leukemia) cells, exposed for 96 hours; read-out: IC50, concentration of compound eliciting a 50% inhibition of cell proliferation
Experimental: as §1

MIAPaCa-2 (pancreas) = test: In vitro cytotoxic activity (MTT) assay, MIAPaCa-2; details: Homo sapiens, MIA PaCa-2; MIAPaCa-2 (pancreas) cells, exposed for 96 hours; read-out: IC50, concentration of compound eliciting a 50% inhibition of cell proliferation
Experimental: as §1

H1299 (lung) = test: In vitro cytotoxic activity (MTT) assay, H1299; details: Homo sapiens, NCI-H1299; H1299 (lung) cells, exposed for 96 hours; read-out: IC50, concentration of compound eliciting a 50% inhibition of cell proliferation
Experimental: as §1

MCF7 (breast) = test: In vitro cytotoxic activity (MTT) assay, MCF7; details: Homo sapiens; MCF7 (breast) cells, exposed for 96 hours; read-out: IC50, concentration of compound eliciting a 50% inhibition of cell proliferation
Experimental: as §1

MDA-MB-231 (breast) = test: In vitro cytotoxic activity (MTT) assay, MDA-MB-231; details: Homo sapiens; MDA-MB-231 (breast) cells, exposed for 96 hours; read-out: IC50, concentration of compound eliciting a 50% inhibition of cell proliferation
Experimental: as §1

HCT116 (colon) = test: In vitro cytotoxic activity (MTT) assay, HCT116; details: Homo sapiens, HCT-116; HCT116 (colon) cells, exposed for 96 hours; read-out: IC50, concentration of compound eliciting a 50% inhibition of cell proliferation
Experimental: as §1

O=C(O)c1ccc2c(c1)nc(Nc1cccc(Cl)c1)c1ccncc12 [CX-4945, reference compound]
IC50 (A375 (melanoma)): 4100 nM
IC50 (PC3 (prostate)): 2000 nM
IC50 (HL60 (leukemia)): 3700 nM
IC50 (MIAPaCa-2 (pancreas)): 1000 nM
IC50 (H1299 (lung)): 2300 nM
IC50 (MCF7 (breast)): 9100 nM
IC50 (MDA-MB-231 (breast)): 6200 nM
IC50 (HCT116 (colon)): 2300 nM
